Measured values taken from patent publication US20230077983A1, “METHODS OF TREATING AND PREVENTING ENGRAFTMENT ARRHYTHMIAS” (UNIVERSITY OF WASHINGTON, priority 2020, published 2023).

Test system: engraftment arrhythmia (EA)
Conditions: pig, in vivo
Description: A number of anti-arrhythmic therapies were tested to determine their efficacy in treating and preventing engraftment arrhythmias.
The objective of this study was to identify a pharmacological regimen to attenuate arrhythmias following cardiac remuscularization therapy. This study was designed in two phases: the first, to observe the natural history of EA and screen various antiarrhythmic agents for efficacy and the second, test for efficacy (FIG. 16). All subjects were 30-40 kg castrated male Yucatan minipigs between 6-13 months of age (S&S Farms). In Phase 1, nine subjects underwent cardiac remuscularization therapy with 500×10^6 hESC-CM delivered by direct surgical transepicardial injections or later, by percutaneous transendocardial injections. The first four subjects (one non-infarcted and three infarcted) were followed to learn the natural history of EA and establish clinical endpoints and parameters for the Phase 2 drug trial. The subsequent five subjects underwent systematic dosing with antiarrhythmic agents with continuous electrocardiography (ECG) monitoring to determine effect on rhythm and rate (Table 2).
In addition, the funny current/HCN4 channel antagonist, ivabradine, was tested (Tables 1 and 2). This series was not meant to be definitive but rather to rapidly identify candidate agents. […]

With `CCCNCC(O)COc1ccccc1C(=O)CCc1ccccc1` (stereo not shown) [Propafenone] the “toxicity in the screen” value was “substantial gastrointestinal toxicity”.
